Test [1] deals with T1, caspase-8 (human (endogenous in MCF7)), Q14790.
T1 chain: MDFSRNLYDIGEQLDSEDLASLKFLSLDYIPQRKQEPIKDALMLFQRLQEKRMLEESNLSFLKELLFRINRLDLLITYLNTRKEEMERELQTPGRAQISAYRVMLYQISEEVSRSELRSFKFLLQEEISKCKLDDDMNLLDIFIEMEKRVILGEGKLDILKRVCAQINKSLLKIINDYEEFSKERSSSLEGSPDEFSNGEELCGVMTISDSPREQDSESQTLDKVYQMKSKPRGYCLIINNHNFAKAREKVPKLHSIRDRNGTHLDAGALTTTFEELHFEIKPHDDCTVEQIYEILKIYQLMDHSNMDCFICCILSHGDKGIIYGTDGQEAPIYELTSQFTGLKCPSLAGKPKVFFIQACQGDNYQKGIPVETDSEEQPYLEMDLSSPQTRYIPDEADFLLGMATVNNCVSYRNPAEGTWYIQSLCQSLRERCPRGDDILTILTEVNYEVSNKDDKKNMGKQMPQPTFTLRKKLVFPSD
Description: co-IP; MCF7 lysate, immunoprecipitation with a caspase-8 antibody, western blot; cells treated with 10 uM jacaranone for 6 h, then TNFα (20 ng/mL) for 0.5 h. The note with it: remark: other sources report otherwise. Background: A western blot detects proteins with antibodies after separation by electrophoresis.

Test [2] deals with caspase-8 (human (endogenous in MCF7)) (UniProt Q14790). Described as above.

Results are given in words; binding and its absence hold for the method and conditions named. Binding seen in cells or lysates may run through a third protein. Some binding calls cover weakened binding; strength is not graded here.

This passage reports binding results from paper PMC11679285.

B1: TNF receptor associated factor 2 (TRAF2), Q12933 1-501 (protein)
chain: MAAASVTPPGSLELLQPGFSKTLLGTKLEAKYLCSACRNVLRRPFQAQCGHRYCSFCLASILSSGPQNCAACVHEGIYEEGISILESSSAFPDNAARREVESLPAVCPSDGCTWKGTLKEYESCHEGRCPLMLTECPACKGLVRLGEKERHLEHECPERSLSCRHCRAPCCGADVKAHHEVCPKFPLTCDGCGKKKIPREKFQDHVKTCGKCRVPCRFHAIGCLETVEGEKQQEHEVQWLREHLAMLLSSVLEAKPLLGDQSHAGSELLQRCESLEKKTATFENIVCVLNREVERVAMTAEACSRQHRLDQDKIEALSSKVQQLERSIGLKDLAMADLEQKVLEMEASTYDGVFIWKISDFARKRQEAVAGRIPAIFSPAFYTSRYGYKMCLRIYLNGDGTGRGTHLSLFFVVMKGPNDALLRWPFNQKVTLMLLDQNNREHVIDAFRPDVTSSSFQRPVNDMNIASGCPLFCPVSKMEAKNSYVRDDAIFIKAIVDLTGL
On to B1, for which the binding entry in test [1] is listed as “binds”.

B2: TNFR1-associated death domain protein (TRADD) (protein, UniProt Q15628 1-312)
chain: MAAGQNGHEEWVGSAYLFVESSLDKVVLSDAYAHPQQKVAVYRALQAALAESGGSPDVLQMLKIHRSDPQLIVQLRFCGRQPCGRFLRAYREGALRAALQRSLAAALAQHSVPLQLELRAGAERLDALLADEERCLSCILAQQPDRLRDEELAELEDALRNLKCGSGARGGDGEVASAPLQPPVPSLSEVKPPPPPPPAQTFLFQGQPVVNRPLSLKDQQTFARSVGLKWRKVGRSLQRGCRALRDPALDSLAYEYEREGLYEQAFQLLRRFVQAEGRRATLQRLVEALEENELTSLAEDLLGLTDPNGGLA
Turning to B2, in test [2], the binding result is reported as “binds”.
